In the experiment the target is Connexin 43 (GJA1) (mouse (endogenous in TtT/GF)) (UniProt P23242). Nature of the experiment: co-IP; pre-cleared whole TtT/GF cell lysates (2 mg/ml) incubated overnight at 4°C with rabbit polyclonal anti-Cx43 or buffer (control), protein A Sepharose 4B beads 4 h at 4°C; Western blot with mouse anti-Cx50 or mouse anti-Cx43.

The chains behind the UniProt entries cited, without tags or fusion partners.
UniProt P23242: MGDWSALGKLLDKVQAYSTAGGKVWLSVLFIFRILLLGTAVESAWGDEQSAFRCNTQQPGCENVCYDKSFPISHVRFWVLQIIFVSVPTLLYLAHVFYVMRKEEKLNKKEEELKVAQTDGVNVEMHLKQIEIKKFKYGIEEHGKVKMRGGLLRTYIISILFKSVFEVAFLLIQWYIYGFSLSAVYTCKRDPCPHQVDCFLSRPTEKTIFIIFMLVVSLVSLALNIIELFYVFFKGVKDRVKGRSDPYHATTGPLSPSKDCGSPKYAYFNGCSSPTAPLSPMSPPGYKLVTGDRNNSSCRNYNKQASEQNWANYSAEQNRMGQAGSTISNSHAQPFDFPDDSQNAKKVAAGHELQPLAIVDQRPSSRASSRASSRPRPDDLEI
UniProt P28236: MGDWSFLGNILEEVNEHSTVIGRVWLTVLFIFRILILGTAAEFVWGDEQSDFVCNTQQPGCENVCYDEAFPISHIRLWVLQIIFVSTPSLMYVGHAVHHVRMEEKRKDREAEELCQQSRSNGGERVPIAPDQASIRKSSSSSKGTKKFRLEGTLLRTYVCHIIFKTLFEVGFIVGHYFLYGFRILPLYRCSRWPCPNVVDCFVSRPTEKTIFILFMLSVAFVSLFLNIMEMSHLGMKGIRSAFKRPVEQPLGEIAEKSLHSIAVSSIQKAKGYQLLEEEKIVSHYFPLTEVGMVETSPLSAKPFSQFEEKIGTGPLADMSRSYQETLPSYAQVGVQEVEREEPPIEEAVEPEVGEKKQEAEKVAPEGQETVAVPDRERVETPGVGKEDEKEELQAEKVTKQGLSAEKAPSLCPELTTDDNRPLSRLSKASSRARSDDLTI

No constants are given. Whether binding was seen depends on the method and setting. In cells and extracts the contact can be indirect. Some results given as binding are weak or reduced against the parent protein; the word gives no strength.

As to “Connexin 50 (GJA8) (from UniProt P28236 1-440)”, the binding result is “binds”.

These data come from publication PMC5536325.
